The values that follow come from the supplement of paper PMC11732987, “Enantioselective OTUD7B fragment discovery through chemoproteomics screening and high-throughput optimisation” (Communications Chemistry, 2025).

Chains of the proteins cited; added tags and fusions are not shown. Lines headed by an entry give the natural chain unless they say otherwise; changes in a name come on top. Residues count along the entry.
UniProt P28328: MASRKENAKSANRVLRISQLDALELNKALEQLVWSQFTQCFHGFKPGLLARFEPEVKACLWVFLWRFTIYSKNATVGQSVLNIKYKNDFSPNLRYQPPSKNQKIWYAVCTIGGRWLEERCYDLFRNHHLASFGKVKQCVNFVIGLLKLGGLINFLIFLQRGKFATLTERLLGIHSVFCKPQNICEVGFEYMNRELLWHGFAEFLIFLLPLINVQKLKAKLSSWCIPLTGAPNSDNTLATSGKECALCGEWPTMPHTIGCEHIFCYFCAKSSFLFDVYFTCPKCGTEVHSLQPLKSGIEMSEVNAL
UniProt A6NDG6: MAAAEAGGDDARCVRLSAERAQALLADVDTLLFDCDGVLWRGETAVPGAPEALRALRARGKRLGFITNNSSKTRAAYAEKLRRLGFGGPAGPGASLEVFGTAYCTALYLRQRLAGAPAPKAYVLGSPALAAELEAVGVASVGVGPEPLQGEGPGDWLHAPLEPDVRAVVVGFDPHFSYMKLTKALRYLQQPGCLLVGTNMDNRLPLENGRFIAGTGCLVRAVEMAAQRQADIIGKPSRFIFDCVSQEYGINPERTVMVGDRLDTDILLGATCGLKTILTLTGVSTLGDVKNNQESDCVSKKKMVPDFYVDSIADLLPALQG
UniProt Q9BYG5: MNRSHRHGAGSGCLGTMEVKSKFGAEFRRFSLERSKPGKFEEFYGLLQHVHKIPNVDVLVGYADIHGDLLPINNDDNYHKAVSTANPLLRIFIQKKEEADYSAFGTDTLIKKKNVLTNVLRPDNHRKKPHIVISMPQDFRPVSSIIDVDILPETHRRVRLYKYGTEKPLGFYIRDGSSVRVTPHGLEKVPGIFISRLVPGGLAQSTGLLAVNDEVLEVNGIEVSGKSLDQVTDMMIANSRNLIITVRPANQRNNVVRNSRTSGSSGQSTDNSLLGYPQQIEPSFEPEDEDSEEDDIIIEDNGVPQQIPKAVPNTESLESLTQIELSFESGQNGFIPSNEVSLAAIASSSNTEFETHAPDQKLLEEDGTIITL
UniProt O96013, 255-290: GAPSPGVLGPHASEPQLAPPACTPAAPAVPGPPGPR
UniProt Q96RG2: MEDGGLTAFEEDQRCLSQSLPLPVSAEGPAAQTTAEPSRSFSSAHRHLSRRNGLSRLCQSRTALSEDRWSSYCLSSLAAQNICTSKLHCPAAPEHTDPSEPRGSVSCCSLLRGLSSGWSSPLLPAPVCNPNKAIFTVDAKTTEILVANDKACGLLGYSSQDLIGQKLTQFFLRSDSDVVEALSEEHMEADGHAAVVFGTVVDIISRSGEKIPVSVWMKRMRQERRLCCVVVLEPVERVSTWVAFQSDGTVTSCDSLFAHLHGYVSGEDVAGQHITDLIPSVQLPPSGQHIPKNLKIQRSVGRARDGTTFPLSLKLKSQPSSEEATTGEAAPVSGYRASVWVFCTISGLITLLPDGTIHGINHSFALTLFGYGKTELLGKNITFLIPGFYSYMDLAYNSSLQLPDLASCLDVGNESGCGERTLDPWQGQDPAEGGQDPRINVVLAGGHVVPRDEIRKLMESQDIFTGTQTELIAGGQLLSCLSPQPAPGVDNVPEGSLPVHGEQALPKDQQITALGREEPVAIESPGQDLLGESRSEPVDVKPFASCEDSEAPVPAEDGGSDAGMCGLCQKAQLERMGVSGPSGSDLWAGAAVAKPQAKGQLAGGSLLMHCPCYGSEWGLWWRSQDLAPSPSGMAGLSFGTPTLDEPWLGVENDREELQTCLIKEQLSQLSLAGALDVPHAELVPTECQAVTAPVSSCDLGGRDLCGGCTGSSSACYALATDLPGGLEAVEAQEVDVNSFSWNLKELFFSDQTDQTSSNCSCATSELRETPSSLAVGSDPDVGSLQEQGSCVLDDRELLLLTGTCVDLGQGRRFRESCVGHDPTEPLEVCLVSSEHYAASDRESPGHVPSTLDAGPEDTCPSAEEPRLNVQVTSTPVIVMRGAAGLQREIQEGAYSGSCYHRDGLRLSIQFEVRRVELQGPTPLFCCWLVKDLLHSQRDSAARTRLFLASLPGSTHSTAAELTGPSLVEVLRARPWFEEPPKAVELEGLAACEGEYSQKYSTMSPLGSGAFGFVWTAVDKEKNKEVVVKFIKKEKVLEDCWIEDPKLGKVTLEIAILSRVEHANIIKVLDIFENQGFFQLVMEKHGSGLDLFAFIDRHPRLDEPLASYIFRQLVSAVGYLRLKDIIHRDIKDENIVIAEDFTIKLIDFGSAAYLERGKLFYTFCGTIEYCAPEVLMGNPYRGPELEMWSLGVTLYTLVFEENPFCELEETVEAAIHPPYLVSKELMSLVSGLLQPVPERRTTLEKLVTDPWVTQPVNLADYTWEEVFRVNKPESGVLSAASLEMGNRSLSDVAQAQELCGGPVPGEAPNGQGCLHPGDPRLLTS
UniProt P29122: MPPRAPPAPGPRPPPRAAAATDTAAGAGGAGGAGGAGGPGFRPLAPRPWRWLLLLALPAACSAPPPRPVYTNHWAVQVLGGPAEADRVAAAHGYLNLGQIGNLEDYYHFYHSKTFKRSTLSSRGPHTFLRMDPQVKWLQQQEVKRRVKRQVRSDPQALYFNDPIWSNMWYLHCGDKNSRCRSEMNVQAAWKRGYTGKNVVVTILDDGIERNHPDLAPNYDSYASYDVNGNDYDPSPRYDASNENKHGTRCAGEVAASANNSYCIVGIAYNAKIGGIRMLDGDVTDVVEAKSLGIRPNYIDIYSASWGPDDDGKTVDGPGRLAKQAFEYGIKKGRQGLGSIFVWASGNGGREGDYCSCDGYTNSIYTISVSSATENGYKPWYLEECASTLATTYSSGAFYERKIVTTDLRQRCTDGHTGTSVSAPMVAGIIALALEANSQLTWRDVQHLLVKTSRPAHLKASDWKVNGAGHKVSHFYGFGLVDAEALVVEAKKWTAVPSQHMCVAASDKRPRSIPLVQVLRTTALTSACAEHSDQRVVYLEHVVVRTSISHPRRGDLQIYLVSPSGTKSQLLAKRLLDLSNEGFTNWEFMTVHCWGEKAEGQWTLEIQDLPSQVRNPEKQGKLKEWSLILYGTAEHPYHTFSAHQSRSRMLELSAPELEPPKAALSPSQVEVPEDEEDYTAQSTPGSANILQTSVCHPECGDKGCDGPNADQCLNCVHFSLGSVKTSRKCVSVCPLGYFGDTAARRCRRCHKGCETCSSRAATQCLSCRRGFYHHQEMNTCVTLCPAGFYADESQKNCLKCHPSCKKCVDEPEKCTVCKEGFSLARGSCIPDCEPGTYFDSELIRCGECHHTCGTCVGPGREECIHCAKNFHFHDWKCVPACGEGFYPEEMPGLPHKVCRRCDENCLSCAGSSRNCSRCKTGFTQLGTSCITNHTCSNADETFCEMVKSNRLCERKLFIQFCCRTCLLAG
UniProt P55809: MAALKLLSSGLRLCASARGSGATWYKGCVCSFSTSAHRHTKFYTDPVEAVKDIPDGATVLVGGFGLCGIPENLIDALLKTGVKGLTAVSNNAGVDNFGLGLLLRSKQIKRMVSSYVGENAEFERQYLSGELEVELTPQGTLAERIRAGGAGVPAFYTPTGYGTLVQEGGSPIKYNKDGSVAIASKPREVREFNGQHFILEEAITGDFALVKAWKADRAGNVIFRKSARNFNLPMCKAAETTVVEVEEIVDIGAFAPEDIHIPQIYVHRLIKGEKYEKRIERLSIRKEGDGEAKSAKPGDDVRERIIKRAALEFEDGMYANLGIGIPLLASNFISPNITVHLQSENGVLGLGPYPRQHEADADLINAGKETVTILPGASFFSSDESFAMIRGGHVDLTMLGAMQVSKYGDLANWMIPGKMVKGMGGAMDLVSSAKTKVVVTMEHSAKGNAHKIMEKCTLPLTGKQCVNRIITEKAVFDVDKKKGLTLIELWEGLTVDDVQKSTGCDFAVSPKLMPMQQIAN
UniProt Q96BN8, 212-233: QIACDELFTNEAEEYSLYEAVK
UniProt P12955: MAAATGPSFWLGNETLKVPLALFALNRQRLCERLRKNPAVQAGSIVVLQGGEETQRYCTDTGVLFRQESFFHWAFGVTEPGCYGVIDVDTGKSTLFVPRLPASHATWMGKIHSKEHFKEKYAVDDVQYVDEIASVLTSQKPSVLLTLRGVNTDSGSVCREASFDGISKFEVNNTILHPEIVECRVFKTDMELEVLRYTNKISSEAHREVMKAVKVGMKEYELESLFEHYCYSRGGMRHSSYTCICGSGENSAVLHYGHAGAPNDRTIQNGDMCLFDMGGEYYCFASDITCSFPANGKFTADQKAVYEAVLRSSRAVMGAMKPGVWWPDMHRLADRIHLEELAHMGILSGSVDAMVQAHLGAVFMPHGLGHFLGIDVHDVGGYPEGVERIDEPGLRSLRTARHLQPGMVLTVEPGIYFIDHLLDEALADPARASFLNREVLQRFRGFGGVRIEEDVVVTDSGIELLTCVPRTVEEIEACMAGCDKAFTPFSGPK
UniProt Q08499: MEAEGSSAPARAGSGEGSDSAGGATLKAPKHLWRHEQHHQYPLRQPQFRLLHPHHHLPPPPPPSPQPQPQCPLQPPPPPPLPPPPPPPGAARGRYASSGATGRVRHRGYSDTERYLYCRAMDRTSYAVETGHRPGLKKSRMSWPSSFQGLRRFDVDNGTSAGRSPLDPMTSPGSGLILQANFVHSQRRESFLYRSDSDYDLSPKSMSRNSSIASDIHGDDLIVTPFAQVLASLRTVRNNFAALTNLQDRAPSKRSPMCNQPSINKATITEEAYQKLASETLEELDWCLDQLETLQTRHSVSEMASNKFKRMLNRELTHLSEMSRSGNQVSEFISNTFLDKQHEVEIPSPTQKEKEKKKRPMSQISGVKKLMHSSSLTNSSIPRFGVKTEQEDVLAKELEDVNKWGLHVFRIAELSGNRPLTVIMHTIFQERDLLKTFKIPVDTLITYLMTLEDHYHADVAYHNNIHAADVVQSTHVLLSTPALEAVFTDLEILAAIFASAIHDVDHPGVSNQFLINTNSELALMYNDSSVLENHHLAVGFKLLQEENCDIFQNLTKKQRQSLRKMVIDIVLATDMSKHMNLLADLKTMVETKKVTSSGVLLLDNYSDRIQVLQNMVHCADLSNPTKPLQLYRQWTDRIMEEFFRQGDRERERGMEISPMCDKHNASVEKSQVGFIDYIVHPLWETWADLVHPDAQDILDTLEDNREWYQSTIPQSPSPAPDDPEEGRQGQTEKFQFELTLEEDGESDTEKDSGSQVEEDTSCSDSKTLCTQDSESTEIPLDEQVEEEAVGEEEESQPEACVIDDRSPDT
UniProt A6NDB9: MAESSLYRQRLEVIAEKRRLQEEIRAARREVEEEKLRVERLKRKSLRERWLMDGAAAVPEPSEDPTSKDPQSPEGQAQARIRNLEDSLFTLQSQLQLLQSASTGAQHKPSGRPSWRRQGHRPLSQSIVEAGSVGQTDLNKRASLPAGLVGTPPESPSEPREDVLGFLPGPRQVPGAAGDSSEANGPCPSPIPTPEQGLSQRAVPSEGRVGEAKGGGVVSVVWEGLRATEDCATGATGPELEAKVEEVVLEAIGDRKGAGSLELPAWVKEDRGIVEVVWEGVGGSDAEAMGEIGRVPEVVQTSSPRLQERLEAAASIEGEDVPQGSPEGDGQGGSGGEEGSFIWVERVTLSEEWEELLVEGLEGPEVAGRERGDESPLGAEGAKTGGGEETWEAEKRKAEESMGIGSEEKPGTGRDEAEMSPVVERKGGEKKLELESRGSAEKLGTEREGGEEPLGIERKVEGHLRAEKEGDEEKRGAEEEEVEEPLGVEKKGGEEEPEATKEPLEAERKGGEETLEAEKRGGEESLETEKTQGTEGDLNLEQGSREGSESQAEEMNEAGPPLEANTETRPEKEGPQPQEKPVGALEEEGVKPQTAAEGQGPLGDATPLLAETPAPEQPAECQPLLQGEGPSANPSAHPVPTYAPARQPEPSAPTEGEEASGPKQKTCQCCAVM
UniProt Q9BRP1: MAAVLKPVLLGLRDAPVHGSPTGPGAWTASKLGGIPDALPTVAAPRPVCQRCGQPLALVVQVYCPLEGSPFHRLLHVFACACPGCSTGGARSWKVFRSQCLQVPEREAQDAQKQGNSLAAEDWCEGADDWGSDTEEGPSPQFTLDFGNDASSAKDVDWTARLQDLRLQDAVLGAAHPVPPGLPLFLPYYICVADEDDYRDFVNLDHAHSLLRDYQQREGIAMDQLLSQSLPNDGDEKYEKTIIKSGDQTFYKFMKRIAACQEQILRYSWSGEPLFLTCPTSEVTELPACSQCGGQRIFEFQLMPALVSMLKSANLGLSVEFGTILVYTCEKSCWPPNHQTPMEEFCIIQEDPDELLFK
UniProt Q9BRX2, whole entry, looked up: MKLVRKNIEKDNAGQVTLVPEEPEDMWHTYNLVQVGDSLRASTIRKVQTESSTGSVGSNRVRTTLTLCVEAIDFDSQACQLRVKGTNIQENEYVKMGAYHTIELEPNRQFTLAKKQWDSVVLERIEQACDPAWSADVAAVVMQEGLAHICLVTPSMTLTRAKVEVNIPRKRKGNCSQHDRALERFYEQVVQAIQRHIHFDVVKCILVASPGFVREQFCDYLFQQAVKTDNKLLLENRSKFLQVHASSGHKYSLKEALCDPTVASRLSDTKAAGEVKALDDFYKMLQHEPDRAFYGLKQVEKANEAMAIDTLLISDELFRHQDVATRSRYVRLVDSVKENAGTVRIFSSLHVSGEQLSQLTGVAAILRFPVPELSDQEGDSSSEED

The list shows a part of the results. The data scatter; read single values as rough.

Compound in one test: ClCC(=O)N[C@@H]1CCCc2ccccc12
Kind of test: log2 mean competition ratio of IA-DTB cysteine labelling (DMSO/compound) (log2 ratio); higher = stronger cysteine engagement by compound. To be noted: 50 µM; treatment time: 4 h; cell line lysate: HEK293T. The procedure: (§1)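 IA-DTB competitive cysteine chemoproteomics in HEK293T RIPA lysate. Lysates were treated with compound 29 or 30 at 50 or 200 µM for 4 h, then IA-DTB (500 µM, 1 h), trypsin-digested, NeutrAvidin-enriched and analysed by diaPASEF. Competition ratio = intensity DMSO / intensity compound (n=4 treated, n=64 DMSO); binding: mean log2 CR ≥ 1 and p ≤ 0.05 plus QC filters. Target is the cysteine site.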
Take PARP1 C311 (UniProt P09874): the “log2 mean competition ratio” value was -0.123.

With PARN C317 (UniProt O95453), the “log2 mean competition ratio” value is 0.208.

In the case of PEX2 C283 (UniProt P28328), the “log2 mean competition ratio” value came out at 0.00605.

On to P4HA2 C529 (UniProt O15460), for which the “log2 mean competition ratio” value came to 0.215.

Take PGP C243 (UniProt A6NDG6): the “log2 mean competition ratio” value was -0.0201.

Take PARD6G C16: the “log2 mean competition ratio” value was -0.208.

As to PARP2 C474 (UniProt Q9UGN5), the “log2 mean competition ratio” value is 0.187.

As for PA2G4 C296 (UniProt Q9UQ80), the “log2 mean competition ratio” value was -0.0901.

For the target PARD6B C13 (UniProt Q9BYG5), the “log2 mean competition ratio” value came out at 0.06.

For PALS1 C39, the “log2 mean competition ratio” value was -0.131.

With PCNT C2628 (UniProt O95613), the “log2 mean competition ratio” value is 0.251.

Consider PHC2 C673 (UniProt Q8IXK0), for which the “log2 mean competition ratio” value was -0.0392.

In the case of PDK1 C71, the “log2 mean competition ratio” value is -0.339.

Take PEA15 C27 (UniProt Q15121): the “log2 mean competition ratio” value is -0.123.

On to PCNA C81 (UniProt P12004), for which the “log2 mean competition ratio” value was -0.0587.

Take PALS1 C366: the “log2 mean competition ratio” value was 0.209.

As to PAK4 C276 (UniProt O96013), the “log2 mean competition ratio” value was -0.404.

For the target PARG C943 (UniProt Q86W56), the “log2 mean competition ratio” value was -0.193.

Turning to PASK C89 (UniProt Q96RG2), the “log2 mean competition ratio” value was 0.0687.

Consider PDE4DIP C617, for which the “log2 mean competition ratio” value is -0.396.

Turning to PCSK6 C528 (UniProt P29122), the “log2 mean competition ratio” value is -0.00511.

As to OXCT1 C235 (UniProt P55809), the “log2 mean competition ratio” value stood at 0.0472.

For PARP2 C288 (UniProt Q9UGN5), the “log2 mean competition ratio” value was -0.166.

P3H1 C483 (UniProt Q32P28): the “log2 mean competition ratio” value was -0.0841.

With OTULIN C215 (UniProt Q96BN8), the “log2 mean competition ratio” value was -0.523.

Consider PEPD C158 (UniProt P12955), for which the “log2 mean competition ratio” value was -0.246.

Take PGM3 C348: the “log2 mean competition ratio” value stood at 0.00446.

For the target PDE4D C258 (UniProt Q08499), the “log2 mean competition ratio” value worked out at 0.692.

With PALM3 C231 (UniProt A6NDB9), the “log2 mean competition ratio” value stood at 0.00107.

In the case of PCIF1 C404 (UniProt Q9H4Z3), the “log2 mean competition ratio” value stood at 0.182.

As to PARK7 C53 (UniProt Q99497), the “log2 mean competition ratio” value was -0.181.

Consider PAN2 C575 (UniProt Q504Q3), for which the “log2 mean competition ratio” value was 0.424.

For PGD C289, the “log2 mean competition ratio” value was -0.0167.

With PDCD2L C100 (UniProt Q9BRP1), the “log2 mean competition ratio” value was -0.169.

On to PELO C258 (UniProt Q9BRX2), for which the “log2 mean competition ratio” value is -0.0431.

On to PDIA5 C231 (UniProt Q14554), for which the “log2 mean competition ratio” value is -0.324.

Turning to PDK2 C45 (UniProt Q15119), the “log2 mean competition ratio” value was -0.348.

Still in this test, the particulars now being: 200 µM; treatment time: 4 h; cell line lysate: HEK293T.
PARP1 C311 (UniProt P09874): the “log2 mean competition ratio” value was -0.119.

As to PARN C317 (UniProt O95453), the “log2 mean competition ratio” value is -0.19.

Regarding PEX2 C283 (UniProt P28328), the “log2 mean competition ratio” value came out at 0.0872.

As for P4HA2 C529 (UniProt O15460), the “log2 mean competition ratio” value was -0.0718.

As to PGP C243 (UniProt A6NDG6), the “log2 mean competition ratio” value was -0.0797.

With PARD6G C16, the “log2 mean competition ratio” value was -0.27.

With PARP2 C474 (UniProt Q9UGN5), the “log2 mean competition ratio” value was -0.116.

Regarding PA2G4 C296 (UniProt Q9UQ80), the “log2 mean competition ratio” value was -0.11.

As to PARD6B C13 (UniProt Q9BYG5), the “log2 mean competition ratio” value worked out at 0.0639.

As for PALS1 C39, the “log2 mean competition ratio” value came to 0.069.

Turning to PCNT C2628 (UniProt O95613), the “log2 mean competition ratio” value was -0.0642.

Turning to PHC2 C673 (UniProt Q8IXK0), the “log2 mean competition ratio” value was found to be 0.034.

With PDK1 C71, the “log2 mean competition ratio” value came to 0.221.

For PEA15 C27 (UniProt Q15121), the “log2 mean competition ratio” value was -0.0954.

For the target PCNA C81 (UniProt P12004), the “log2 mean competition ratio” value is -0.195.

Regarding PALS1 C366, the “log2 mean competition ratio” value came out at 0.0693.

For the target PAK4 C276 (UniProt O96013), the “log2 mean competition ratio” value was found to be 0.109.

In the case of PARG C943 (UniProt Q86W56), the “log2 mean competition ratio” value was -0.0495.

As to PASK C89 (UniProt Q96RG2), the “log2 mean competition ratio” value is -0.231.

On to PDE4DIP C617, for which the “log2 mean competition ratio” value came to 0.175.

Consider PCSK6 C528 (UniProt P29122), for which the “log2 mean competition ratio” value is -0.0387.

Turning to OXCT1 C235 (UniProt P55809), the “log2 mean competition ratio” value was -0.0345.

PARP2 C288 (UniProt Q9UGN5): the “log2 mean competition ratio” value turned out to be 0.00279.

As to P3H1 C483 (UniProt Q32P28), the “log2 mean competition ratio” value worked out at 0.151.

Turning to OTULIN C215 (UniProt Q96BN8), the “log2 mean competition ratio” value amounted to 0.329.

As to PEPD C158 (UniProt P12955), the “log2 mean competition ratio” value amounted to 0.224.

Regarding PGM3 C348, the “log2 mean competition ratio” value is -0.0936.

Turning to PDE4D C258 (UniProt Q08499), the “log2 mean competition ratio” value amounted to 0.0907.

On to PALM3 C231 (UniProt A6NDB9), for which the “log2 mean competition ratio” value is -0.224.

In the case of PCIF1 C404 (UniProt Q9H4Z3), the “log2 mean competition ratio” value was -0.00099.

With PARK7 C53 (UniProt Q99497), the “log2 mean competition ratio” value is -0.459.

Turning to PAN2 C575 (UniProt Q504Q3), the “log2 mean competition ratio” value is 0.0817.

PGD C289: the “log2 mean competition ratio” value was -0.049.

For PDCD2L C100 (UniProt Q9BRP1), the “log2 mean competition ratio” value is -0.128.

Take PELO C258 (UniProt Q9BRX2): the “log2 mean competition ratio” value was -0.101.

Regarding PDIA5 C231 (UniProt Q14554), the “log2 mean competition ratio” value was -0.706.

Consider PDK2 C45 (UniProt Q15119), for which the “log2 mean competition ratio” value amounted to 0.117.

Compound in a further test: ClCC(=O)N[C@H]1CCCc2ccccc12
Described as above. To be noted: 50 µM; treatment time: 4 h; cell line lysate: HEK293T. The procedure: as §1
For PARP1 C311 (UniProt P09874), the “log2 mean competition ratio” value is 0.42.

For PARN C317 (UniProt O95453), the “log2 mean competition ratio” value stood at 0.33.

With PEX2 C283 (UniProt P28328), the “log2 mean competition ratio” value was -0.384.

For the target P4HA2 C529 (UniProt O15460), the “log2 mean competition ratio” value stood at 0.431.

For the target PGP C243 (UniProt A6NDG6), the “log2 mean competition ratio” value was 0.246.

Turning to PARD6G C16, the “log2 mean competition ratio” value was -0.414.

For the target PARP2 C474 (UniProt Q9UGN5), the “log2 mean competition ratio” value came to 0.264.

Take PA2G4 C296 (UniProt Q9UQ80): the “log2 mean competition ratio” value was determined as 0.125.

For PARD6B C13 (UniProt Q9BYG5), the “log2 mean competition ratio” value worked out at 0.364.

In the case of PALS1 C39, the “log2 mean competition ratio” value was determined as 0.104.

Take PCNT C2628 (UniProt O95613): the “log2 mean competition ratio” value is -0.0854.

Regarding PHC2 C673 (UniProt Q8IXK0), the “log2 mean competition ratio” value is 0.163.

In the case of PDK1 C71, the “log2 mean competition ratio” value was -0.157.

For PEA15 C27 (UniProt Q15121), the “log2 mean competition ratio” value worked out at 0.0255.

For the target PCNA C81 (UniProt P12004), the “log2 mean competition ratio” value is -0.289.

For the target PALS1 C366, the “log2 mean competition ratio” value stood at 1.

As to PAK4 C276 (UniProt O96013), the “log2 mean competition ratio” value was -0.231.

For the target PARG C943 (UniProt Q86W56), the “log2 mean competition ratio” value is -0.165.

Turning to PASK C89 (UniProt Q96RG2), the “log2 mean competition ratio” value came to 0.0621.

Regarding PDE4DIP C617, the “log2 mean competition ratio” value was -0.452.

Turning to PCSK6 C528 (UniProt P29122), the “log2 mean competition ratio” value is -0.147.

As for OXCT1 C235 (UniProt P55809), the “log2 mean competition ratio” value stood at 0.218.

For the target PARP2 C288 (UniProt Q9UGN5), the “log2 mean competition ratio” value is -0.0524.

As to P3H1 C483 (UniProt Q32P28), the “log2 mean competition ratio” value is -0.167.

With OTULIN C215 (UniProt Q96BN8), the “log2 mean competition ratio” value was -0.206.

With PEPD C158 (UniProt P12955), the “log2 mean competition ratio” value was -0.0912.

Take PGM3 C348: the “log2 mean competition ratio” value was 0.205.

For the target PDE4D C258 (UniProt Q08499), the “log2 mean competition ratio” value was -0.0269.

Take PALM3 C231 (UniProt A6NDB9): the “log2 mean competition ratio” value was -0.052.

In the case of PCIF1 C404 (UniProt Q9H4Z3), the “log2 mean competition ratio” value came to 0.246.

As for PARK7 C53 (UniProt Q99497), the “log2 mean competition ratio” value is -0.506.

Consider PAN2 C575 (UniProt Q504Q3), for which the “log2 mean competition ratio” value was 0.683.

For the target PGD C289, the “log2 mean competition ratio” value is -0.316.

As to PDCD2L C100 (UniProt Q9BRP1), the “log2 mean competition ratio” value is -0.000238.

Take PELO C258 (UniProt Q9BRX2): the “log2 mean competition ratio” value was -0.112.

Consider PDIA5 C231 (UniProt Q14554), for which the “log2 mean competition ratio” value is -0.665.

For the target PDK2 C45 (UniProt Q15119), the “log2 mean competition ratio” value was determined as 0.176.
